{"source": "paper PMC4560694", "molecular_target": "T1, GAL4 DNA-binding domain:Pi04089 fusion (pDEST32-Pi04089) (Phytophthora infestans) (UniProt D0N0I9)", "T1 sequence": "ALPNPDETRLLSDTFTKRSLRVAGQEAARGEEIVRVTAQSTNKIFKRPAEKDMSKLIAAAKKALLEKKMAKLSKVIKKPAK", "experiment": "two-hybrid", "note": "No constants are given. Whether binding was seen depends on the method and setting. Binding calls can cover weak binding; strength is not graded here. Where a sequence is shown, tags or fusion partners need not be part of it."}
{"substance": "GAL4 activation domain fusion of StKRBP1 (prey) (from UniProt M1CGA4)", "values": [{"measurement": "binding", "result": "binds"}]}
